± gives the standard deviation of the averaged measurements. The entries are a selection whose mix differs from that of the whole data set. Most values lie at the level of the controls, where differences are scatter.

Protein sequences, listed by entry. Tags and fused reporters are not part of them. Lines headed by an entry give the natural chain unless they say otherwise; changes in a name come on top.
UniProt Q7Z6Z7, whole entry: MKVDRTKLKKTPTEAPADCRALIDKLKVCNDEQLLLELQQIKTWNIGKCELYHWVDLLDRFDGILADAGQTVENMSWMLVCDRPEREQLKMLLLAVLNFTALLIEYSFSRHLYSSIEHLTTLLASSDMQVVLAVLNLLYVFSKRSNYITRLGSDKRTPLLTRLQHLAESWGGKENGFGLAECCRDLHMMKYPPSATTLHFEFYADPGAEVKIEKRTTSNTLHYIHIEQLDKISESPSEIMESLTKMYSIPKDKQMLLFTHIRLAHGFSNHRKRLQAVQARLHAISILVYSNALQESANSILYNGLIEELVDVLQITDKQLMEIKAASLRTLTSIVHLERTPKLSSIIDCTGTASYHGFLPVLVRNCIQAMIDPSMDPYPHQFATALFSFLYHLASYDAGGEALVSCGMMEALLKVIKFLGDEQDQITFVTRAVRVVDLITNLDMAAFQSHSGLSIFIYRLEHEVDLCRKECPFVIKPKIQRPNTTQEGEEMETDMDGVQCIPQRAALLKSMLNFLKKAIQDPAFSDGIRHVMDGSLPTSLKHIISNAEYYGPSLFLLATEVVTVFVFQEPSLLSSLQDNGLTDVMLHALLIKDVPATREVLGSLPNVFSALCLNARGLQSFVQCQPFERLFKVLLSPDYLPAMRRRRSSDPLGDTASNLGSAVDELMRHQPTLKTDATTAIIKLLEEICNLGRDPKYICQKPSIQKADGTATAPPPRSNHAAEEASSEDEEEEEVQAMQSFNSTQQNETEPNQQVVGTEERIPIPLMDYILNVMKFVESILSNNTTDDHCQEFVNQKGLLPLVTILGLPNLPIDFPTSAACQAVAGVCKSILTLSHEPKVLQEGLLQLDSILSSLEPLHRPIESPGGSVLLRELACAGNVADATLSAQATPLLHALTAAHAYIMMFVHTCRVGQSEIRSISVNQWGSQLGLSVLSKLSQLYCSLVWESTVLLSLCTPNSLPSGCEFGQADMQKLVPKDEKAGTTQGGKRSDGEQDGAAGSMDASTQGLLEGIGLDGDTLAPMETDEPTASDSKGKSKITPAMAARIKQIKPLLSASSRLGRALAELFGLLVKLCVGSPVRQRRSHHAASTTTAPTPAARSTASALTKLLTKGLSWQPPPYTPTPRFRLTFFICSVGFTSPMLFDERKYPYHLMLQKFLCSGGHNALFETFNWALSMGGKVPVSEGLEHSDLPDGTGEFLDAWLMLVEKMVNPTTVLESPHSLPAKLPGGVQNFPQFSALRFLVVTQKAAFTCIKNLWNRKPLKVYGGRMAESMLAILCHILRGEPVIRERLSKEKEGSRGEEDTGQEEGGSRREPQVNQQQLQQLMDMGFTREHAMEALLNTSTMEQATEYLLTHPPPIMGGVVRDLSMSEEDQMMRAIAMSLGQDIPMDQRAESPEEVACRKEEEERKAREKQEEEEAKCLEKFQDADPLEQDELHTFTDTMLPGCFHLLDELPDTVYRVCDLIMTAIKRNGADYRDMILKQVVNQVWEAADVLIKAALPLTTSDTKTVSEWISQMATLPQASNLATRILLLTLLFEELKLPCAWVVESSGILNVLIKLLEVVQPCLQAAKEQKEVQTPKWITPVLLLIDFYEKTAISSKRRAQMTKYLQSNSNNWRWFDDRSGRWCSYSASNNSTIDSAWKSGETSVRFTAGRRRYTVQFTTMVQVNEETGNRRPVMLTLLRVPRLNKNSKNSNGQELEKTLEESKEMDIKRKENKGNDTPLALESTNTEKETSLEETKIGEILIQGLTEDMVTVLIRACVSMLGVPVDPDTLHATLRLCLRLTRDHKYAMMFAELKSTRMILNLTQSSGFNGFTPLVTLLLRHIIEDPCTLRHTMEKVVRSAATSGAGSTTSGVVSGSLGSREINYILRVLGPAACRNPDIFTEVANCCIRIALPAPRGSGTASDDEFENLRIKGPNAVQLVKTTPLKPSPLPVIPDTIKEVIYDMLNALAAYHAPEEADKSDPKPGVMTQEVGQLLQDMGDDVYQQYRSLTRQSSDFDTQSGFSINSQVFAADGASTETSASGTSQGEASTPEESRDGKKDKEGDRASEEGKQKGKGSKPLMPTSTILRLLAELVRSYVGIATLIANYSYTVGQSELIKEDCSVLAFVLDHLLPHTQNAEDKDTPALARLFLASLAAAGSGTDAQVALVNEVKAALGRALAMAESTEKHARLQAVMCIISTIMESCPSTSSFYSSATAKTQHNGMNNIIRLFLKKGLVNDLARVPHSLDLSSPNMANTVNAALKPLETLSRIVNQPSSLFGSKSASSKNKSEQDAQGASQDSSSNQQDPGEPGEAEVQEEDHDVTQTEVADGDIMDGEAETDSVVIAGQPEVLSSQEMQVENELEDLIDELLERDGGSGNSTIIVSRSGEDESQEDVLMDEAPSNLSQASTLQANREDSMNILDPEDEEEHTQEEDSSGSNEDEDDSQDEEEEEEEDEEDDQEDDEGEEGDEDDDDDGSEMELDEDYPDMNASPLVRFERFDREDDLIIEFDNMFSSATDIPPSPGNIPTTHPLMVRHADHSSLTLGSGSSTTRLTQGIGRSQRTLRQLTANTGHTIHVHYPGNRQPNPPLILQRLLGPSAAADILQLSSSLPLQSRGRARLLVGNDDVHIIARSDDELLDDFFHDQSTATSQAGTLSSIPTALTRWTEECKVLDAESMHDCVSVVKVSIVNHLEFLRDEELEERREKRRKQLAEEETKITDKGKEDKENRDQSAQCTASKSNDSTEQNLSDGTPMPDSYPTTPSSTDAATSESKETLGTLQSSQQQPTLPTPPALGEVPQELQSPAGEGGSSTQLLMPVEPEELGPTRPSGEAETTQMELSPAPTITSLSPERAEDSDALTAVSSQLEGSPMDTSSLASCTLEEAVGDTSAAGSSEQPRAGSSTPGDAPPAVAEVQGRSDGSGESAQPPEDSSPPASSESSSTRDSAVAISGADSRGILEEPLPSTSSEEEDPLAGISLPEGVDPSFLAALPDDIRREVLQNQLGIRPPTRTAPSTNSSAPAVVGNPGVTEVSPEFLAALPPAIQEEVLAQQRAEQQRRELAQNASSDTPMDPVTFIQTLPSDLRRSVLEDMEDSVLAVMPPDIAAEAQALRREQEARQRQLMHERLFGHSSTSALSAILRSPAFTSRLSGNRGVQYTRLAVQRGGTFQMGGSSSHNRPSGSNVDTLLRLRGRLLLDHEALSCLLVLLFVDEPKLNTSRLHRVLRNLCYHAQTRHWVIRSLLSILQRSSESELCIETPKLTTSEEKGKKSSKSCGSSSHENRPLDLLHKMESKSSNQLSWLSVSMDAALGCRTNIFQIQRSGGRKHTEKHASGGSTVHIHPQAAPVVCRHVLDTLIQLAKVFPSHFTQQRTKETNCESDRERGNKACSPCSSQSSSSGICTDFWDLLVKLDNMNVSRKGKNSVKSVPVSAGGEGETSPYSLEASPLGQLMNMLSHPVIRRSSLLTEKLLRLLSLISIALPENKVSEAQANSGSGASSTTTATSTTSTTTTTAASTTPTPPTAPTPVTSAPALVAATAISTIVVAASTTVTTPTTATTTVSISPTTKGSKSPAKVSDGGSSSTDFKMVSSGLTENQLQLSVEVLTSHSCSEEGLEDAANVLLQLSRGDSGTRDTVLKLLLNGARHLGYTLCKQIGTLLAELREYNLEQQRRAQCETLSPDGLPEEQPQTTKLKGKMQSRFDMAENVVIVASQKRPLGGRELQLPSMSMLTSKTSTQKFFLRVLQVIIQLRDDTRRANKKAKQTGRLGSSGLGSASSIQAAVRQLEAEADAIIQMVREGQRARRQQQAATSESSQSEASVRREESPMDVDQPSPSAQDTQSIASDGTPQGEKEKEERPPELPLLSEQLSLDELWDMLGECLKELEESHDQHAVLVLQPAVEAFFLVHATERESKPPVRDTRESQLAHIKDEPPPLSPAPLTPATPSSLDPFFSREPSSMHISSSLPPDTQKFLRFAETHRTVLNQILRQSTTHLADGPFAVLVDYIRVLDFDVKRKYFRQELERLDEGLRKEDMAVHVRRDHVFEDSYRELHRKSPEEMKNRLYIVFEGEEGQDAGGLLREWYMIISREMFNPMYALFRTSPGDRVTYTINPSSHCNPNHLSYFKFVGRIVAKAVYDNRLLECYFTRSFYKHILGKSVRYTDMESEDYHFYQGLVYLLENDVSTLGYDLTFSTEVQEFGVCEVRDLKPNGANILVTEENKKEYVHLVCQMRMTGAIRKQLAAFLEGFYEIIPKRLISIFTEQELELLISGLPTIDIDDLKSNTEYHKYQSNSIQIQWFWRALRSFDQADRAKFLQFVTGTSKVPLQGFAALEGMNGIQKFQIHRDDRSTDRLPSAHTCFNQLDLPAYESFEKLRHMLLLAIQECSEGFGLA
UniProt O95785: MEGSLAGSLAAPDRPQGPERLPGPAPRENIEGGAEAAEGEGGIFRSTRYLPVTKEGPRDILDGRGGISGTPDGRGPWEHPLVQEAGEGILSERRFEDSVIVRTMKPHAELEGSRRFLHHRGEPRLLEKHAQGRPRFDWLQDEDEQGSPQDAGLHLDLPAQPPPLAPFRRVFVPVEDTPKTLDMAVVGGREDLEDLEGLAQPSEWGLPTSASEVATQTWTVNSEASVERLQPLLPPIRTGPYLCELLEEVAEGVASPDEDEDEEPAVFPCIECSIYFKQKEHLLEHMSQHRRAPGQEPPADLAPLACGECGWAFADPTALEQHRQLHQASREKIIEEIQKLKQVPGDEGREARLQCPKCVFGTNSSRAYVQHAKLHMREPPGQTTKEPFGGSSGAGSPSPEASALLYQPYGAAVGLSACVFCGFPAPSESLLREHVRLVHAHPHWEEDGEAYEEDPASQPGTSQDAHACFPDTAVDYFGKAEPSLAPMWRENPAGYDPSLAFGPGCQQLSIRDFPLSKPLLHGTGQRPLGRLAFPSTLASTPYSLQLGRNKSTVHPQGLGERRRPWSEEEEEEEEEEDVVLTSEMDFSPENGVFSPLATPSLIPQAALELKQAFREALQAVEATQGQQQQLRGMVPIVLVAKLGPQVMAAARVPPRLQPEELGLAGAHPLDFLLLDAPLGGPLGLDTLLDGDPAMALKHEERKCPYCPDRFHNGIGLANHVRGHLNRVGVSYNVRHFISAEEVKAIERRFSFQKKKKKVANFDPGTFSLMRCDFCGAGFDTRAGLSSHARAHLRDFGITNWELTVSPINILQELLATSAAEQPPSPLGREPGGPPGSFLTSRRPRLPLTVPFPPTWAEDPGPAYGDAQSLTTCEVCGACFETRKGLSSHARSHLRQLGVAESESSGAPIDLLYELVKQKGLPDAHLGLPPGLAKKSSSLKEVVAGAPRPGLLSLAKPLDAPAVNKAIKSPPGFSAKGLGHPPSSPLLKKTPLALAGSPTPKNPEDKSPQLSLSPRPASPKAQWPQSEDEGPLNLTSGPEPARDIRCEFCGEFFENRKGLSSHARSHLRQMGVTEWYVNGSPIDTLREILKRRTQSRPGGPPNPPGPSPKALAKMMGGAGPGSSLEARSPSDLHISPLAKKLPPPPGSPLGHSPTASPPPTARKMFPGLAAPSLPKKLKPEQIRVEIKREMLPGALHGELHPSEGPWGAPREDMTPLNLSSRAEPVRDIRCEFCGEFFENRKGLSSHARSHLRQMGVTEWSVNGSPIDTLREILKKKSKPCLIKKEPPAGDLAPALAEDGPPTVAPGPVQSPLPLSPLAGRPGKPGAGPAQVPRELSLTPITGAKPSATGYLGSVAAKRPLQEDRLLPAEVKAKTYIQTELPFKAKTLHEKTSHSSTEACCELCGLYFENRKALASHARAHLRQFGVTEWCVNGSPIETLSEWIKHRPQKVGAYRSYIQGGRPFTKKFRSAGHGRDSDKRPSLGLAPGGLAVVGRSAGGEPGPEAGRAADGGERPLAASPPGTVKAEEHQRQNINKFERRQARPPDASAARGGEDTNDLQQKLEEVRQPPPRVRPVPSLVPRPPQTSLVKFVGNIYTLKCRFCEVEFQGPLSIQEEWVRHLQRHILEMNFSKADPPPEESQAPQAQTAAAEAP
UniProt Q96K21: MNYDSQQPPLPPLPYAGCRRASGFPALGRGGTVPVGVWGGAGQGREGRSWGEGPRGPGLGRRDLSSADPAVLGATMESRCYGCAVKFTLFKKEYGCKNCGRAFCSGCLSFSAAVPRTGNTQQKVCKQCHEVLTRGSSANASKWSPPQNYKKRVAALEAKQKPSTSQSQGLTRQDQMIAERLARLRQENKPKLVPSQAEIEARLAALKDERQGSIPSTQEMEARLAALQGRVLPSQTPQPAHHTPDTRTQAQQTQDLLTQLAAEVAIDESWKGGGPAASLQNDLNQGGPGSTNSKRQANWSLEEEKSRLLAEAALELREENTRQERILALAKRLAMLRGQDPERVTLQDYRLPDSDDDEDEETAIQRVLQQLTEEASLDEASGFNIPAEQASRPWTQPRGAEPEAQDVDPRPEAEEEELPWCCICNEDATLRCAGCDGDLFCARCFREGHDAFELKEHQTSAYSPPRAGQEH

This note sets out measurements from the supplement of paper PMC6411743.

Compound in this assay: Nc1ncnc2c1ncn2[C@@H]1O[C@H](COP(=O)(O)OP(=O)(O)OP(=O)(O)O)[C@@H](O)[C@H]1O [adenosine triphosphate]
Briefly: NP40-soluble protein abundance relative to vehicle (solubility fold change) (ratio); higher = more soluble protein in presence of ATP. The essentials:
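Values are fold changes against the detergent-processed vehicle, based on vsn-normalised intensities. Jurkat crude lysate was treated at eight concentrations from 0.1 to 10 mM (10 min at room temperature, then 3 min at 37 °C), solubilised with 0.8% NP40 and benzonase, ultracentrifuged and analysed by TMT-labelled LC-MS/MS over three independent experiments.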

“H0Y6T6 and related entries (UniProt Q8IXM6)”: the NP40-soluble protein abundance reads like this: (concentration: 0.1mM) 0.969 ± 0.081; (concentration: 0.5mM) 1 ± 0.022.
For the target “H7BY55 and related entries (UniProt P08174)”, the NP40-soluble protein abundance runs as follows: (concentration: 0.1mM) 0.995 ± 0.058; (concentration: 0.5mM) 0.986 ± 0.076.
The corresponding values for “M0QYA8 and related entries (UniProt Q8IV63)” are 1 ± 0.018 and 1.32 ± 0.018.
The corresponding values for “K7ELE3 and related entries (UniProt Q08117)” are 0.945 ± 0.1 and 0.883 ± 0.087.
In the case of “H7C1W4 and related entries (UniProt Q93075+H7C1W4)”, the NP40-soluble protein abundance (concentration: 0.1mM) is 0.954 ± 0.14 and the NP40-soluble protein abundance (concentration: 0.5mM) was 0.978 ± 0.033.
Regarding “H3BLT9 and related entries (UniProt Q7RTR2)”, the NP40-soluble protein abundance reads like this: (concentration: 0.1mM) 1.1 ± 0.069; (concentration: 0.5mM) 1.07 ± 0.047.
For the target “H0Y9Z5 and related entries (UniProt Q96LI5)”, the NP40-soluble protein abundance runs as follows: (concentration: 0.1mM) 1.08 ± 0.053; (concentration: 0.5mM) 1.17 ± 0.2.
As to “H0Y659 and related entries (UniProt Q7Z6Z7)”, the NP40-soluble protein abundance by setting is: (concentration: 0.1mM) 0.998 ± 0.034; (concentration: 0.5mM) 0.989 ± 0.034.
Consider “H7C2F9 and related entries (UniProt Q15032)”, for which the NP40-soluble protein abundance runs as follows: (concentration: 0.1mM) 0.998 ± 0.085; (concentration: 0.5mM) 0.962 ± 0.059.
Regarding H0YEM9 (UniProt Q8NCP5), the NP40-soluble protein abundance is, setting by setting: (concentration: 0.1mM) 1.06 ± 0.12; (concentration: 0.5mM) 1.1 ± 0.14.
Take “H9KV84 and related entries (UniProt Q6ZTU2)”: the NP40-soluble protein abundance is 0.968 ± 0.13 (concentration: 0.1mM) and 0.836 ± 0.2 (concentration: 0.5mM).
As for “H3BQM0 and related entries (UniProt Q8NDF8)”, the NP40-soluble protein abundance reads like this: (concentration: 0.1mM) 1.01 ± 0.11; (concentration: 0.5mM) 1.03 ± 0.1.
For “H7C096 and related entries (UniProt Q12982)”, the NP40-soluble protein abundance (concentration: 0.1mM) amounted to 0.978 ± 0.06 and the NP40-soluble protein abundance (concentration: 0.5mM) was 0.966 ± 0.076.
Turning to “K7ELQ9 and related entries (UniProt Q6UW68)”, the NP40-soluble protein abundance is, setting by setting: (concentration: 0.1mM) 1.06 ± 0.079; (concentration: 0.5mM) 1.09 ± 0.019.
As for “H0Y679 and related entries (UniProt Q92733)”, the NP40-soluble protein abundance is, setting by setting: (concentration: 0.1mM) 1.01 ± 0.04; (concentration: 0.5mM) 0.983 ± 0.032.
For “H0Y997 and related entries (UniProt Q96J42)”, the NP40-soluble protein abundance reads like this: (concentration: 0.1mM) 0.915 ± 0.03; (concentration: 0.5mM) 0.849 ± 0.15.
In the case of “H7C3T2 and related entries (UniProt Q2TAZ0)”, the NP40-soluble protein abundance reads like this: (concentration: 0.1mM) 0.9966 ± 0.0055; (concentration: 0.5mM) 0.946 ± 0.019.
Taken in the same sequence, the figures for “H0Y362 and related entries (UniProt Q8NEW0)” were 1.02 ± 0.018 and 0.939 ± 0.065.
Turning to “K7EQ37 and related entries (UniProt Q70J99)”, the NP40-soluble protein abundance by setting is: (concentration: 0.1mM) 1.06 ± 0.08; (concentration: 0.5mM) 1.03 ± 0.042.
As to “I3L2B0 and related entries (UniProt O75153)”, the NP40-soluble protein abundance came to 1.02 ± 0.049 (concentration: 0.1mM) and 1 ± 0.041 (concentration: 0.5mM).
For “H3BTA2 and related entries (UniProt P60510)”, the NP40-soluble protein abundance is 1.04 ± 0.068 (concentration: 0.1mM) and 1.05 ± 0.06 (concentration: 0.5mM).
For the target “H7C1Z7 and related entries (UniProt Q9GZU7)”, the NP40-soluble protein abundance is, setting by setting: (concentration: 0.1mM) 1.02 ± 0.1; (concentration: 0.5mM) 1.17 ± 0.23.
On to “M0QWZ7 and related entries (UniProt Q9NP81)”, for which the NP40-soluble protein abundance is, setting by setting: (concentration: 0.1mM) 1.03 ± 0.084; (concentration: 0.5mM) 1.03 ± 0.064.
In the case of “H7C0G7 and related entries (UniProt Q9H9Q4)”, the NP40-soluble protein abundance was determined as 1.03 ± 0.22 (concentration: 0.1mM) and 1.07 ± 0.086 (concentration: 0.5mM).
With “J3QL56 and related entries (UniProt O75880)”, the NP40-soluble protein abundance runs as follows: (concentration: 0.1mM) 0.855 ± 0.07; (concentration: 0.5mM) 0.873 ± 0.14.
“J3KN32 and related entries (UniProt Q9UKL0)”: the NP40-soluble protein abundance worked out at 0.972 ± 0.065 (concentration: 0.1mM) and 0.993 ± 0.047 (concentration: 0.5mM).
As for “J3KR58 and related entries (UniProt Q99611)”, the NP40-soluble protein abundance is 1.06 ± 0.038 (concentration: 0.1mM) and 1.03 ± 0.097 (concentration: 0.5mM).
For the target “K7ERF1 and related entries (UniProt Q9UBQ5)”, the NP40-soluble protein abundance was 0.983 ± 0.013 (concentration: 0.1mM) and 1 ± 0.018 (concentration: 0.5mM).
Taken in the same sequence, the figures for “H3BNM4 and related entries (UniProt Q8NBZ0)” were 0.979 ± 0.17 and 1.04 ± 0.18.
As for “H7C560 and related entries (UniProt P15056)”, the NP40-soluble protein abundance is 1.06 ± 0.018 (concentration: 0.1mM) and 1.04 ± 0.046 (concentration: 0.5mM).
For the target “I3L2C7 and related entries (UniProt P57678)”, the NP40-soluble protein abundance was determined as 0.978 ± 0.072 (concentration: 0.1mM) and 0.982 ± 0.099 (concentration: 0.5mM).
Taken in the same sequence, the figures for J3KQL8 (UniProt Q9BQE5) were 1.05 ± 0.04 and 1.02 ± 0.013.
Consider “M0QXA7 and related entries (UniProt O95785)”, for which the NP40-soluble protein abundance runs as follows: (concentration: 0.1mM) 0.975 ± 0.028; (concentration: 0.5mM) 0.973 ± 0.072.
For the target “H0YN33 and related entries (UniProt Q9BW66)”, the NP40-soluble protein abundance (concentration: 0.1mM) came out at 1.1 ± 0.13 and the NP40-soluble protein abundance (concentration: 0.5mM) amounted to 1.32 ± 0.083.
With “J3QR07 and related entries (UniProt Q96MU7)”, the NP40-soluble protein abundance reads like this: (concentration: 0.1mM) 1.003 ± 0.0087; (concentration: 0.5mM) 0.952 ± 0.031.
“G5E9P3 and related entries (UniProt Q9NYS0)”: the NP40-soluble protein abundance was determined as 1.32 ± 0.33 (concentration: 0.1mM) and 1.05 ± 0.096 (concentration: 0.5mM).
As to “J3KQN4 and related entries (UniProt P83881)”, the NP40-soluble protein abundance turned out to be 0.899 ± 0.059 (concentration: 0.1mM) and 0.869 ± 0.053 (concentration: 0.5mM).
Consider “H0YAA2 and related entries (UniProt O43660)”, for which the NP40-soluble protein abundance is 0.984 ± 0.036 (concentration: 0.1mM) and 0.982 ± 0.036 (concentration: 0.5mM).
Turning to “H3BRF9 and related entries (UniProt Q96K21)”, the NP40-soluble protein abundance reads like this: (concentration: 0.1mM) 0.945 ± 0.018; (concentration: 0.5mM) 0.923 ± 0.03.
In the case of “H7C5D9 and related entries (UniProt O75427)”, the NP40-soluble protein abundance stood at 0.937 ± 0.032 (concentration: 0.1mM) and 1.03 ± 0.073 (concentration: 0.5mM).
“G5E9Q6 and related entries (UniProt P35080)”: the NP40-soluble protein abundance is, setting by setting: (concentration: 0.1mM) 0.997 ± 0.026; (concentration: 0.5mM) 0.97 ± 0.032.
On to “I3L0U5 and related entries (UniProt Q6PK04)”, for which the NP40-soluble protein abundance runs as follows: (concentration: 0.1mM) 0.967 ± 0.032; (concentration: 0.5mM) 0.979 ± 0.097.
Taken in the same sequence, the figures for “H0YD93 and related entries (UniProt Q8WXA3)” were 0.959 ± 0.087 and 0.978 ± 0.12.
Taken in the same sequence, the figures for “M0QY01 and related entries (UniProt Q9UBC2)” were 0.958 ± 0.024 and 0.965 ± 0.028.
